Data as given in PubChem BioAssay AID1671195 (Yale University, 2021).

Assay: 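Regulators of LDL receptor activity judged by labelled LDL uptake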 (primary screen)
System: human Huh7 hepatoma cells
Knock-down reagent: siRNA pool against human genes, 18 nM
Time to read-out: about 2 to 2.5 days of knockdown, then 8 h LDL uptake
Conditions: DiI-labelled LDL at 30 µg/ml for 8 h, in lipoprotein-deficient serum medium
Detection: 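Per-cell DiI-LDL intensity by automated imaging; well means scaled to the plate median and given as a robust z-score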
Reading the numbers: robust z-score: higher = more LDL uptake after knockdown
Call rule: 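a gene counts as active if at least two replicate z-scores exceed ±2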
This is an unselected part of about 22,000 reagents. About 1,510 of all reagents (6.9%) count as active. 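Active includes knockdowns raising or lowering LDL uptake; positive z-scores mean more uptake, negative mean less.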 Unmarked entries are inactive.

no.	Target gene	robust z-score, replicate 1	robust z-score, replicate 2	robust z-score, replicate 3
1	CDCP1	1.65	1.55	1.62
2	LOC442466 (retired record)	1.5	1.47	-0.0455
3	COL9A3	-1.83	-1.91	-1.78
4	OR6B1	1.31	0.651	2.61
5	KRTAP26-1	-0.46	-0.293	-0.365
6	ARF5	-1.17	0.85	-0.543
7	SSX7	-0.469	-0.191	-0.367
8	MRPS22	-0.0458	1.28	0.767
9	CCDC177	0.434	0.692	1.62
10	GJB5	-1.45	-1.74	-1.44
11	GATA3-AS1	-0.283	-0.843	-0.921
12	DHCR7	-0.406	1.09	0.849
13	OXTR	0.0647	-0.257	0.971
14	HEATR5B	0.57	0.564	0.82
15	ARL13A	-0.588	-0.2	0.0364
16	PSG8-AS1	0.894	0.74	1.23
17	MIPEP	0.947	0.363	0.415
18	SHANK2	2.33 (active)	3.91	2.15
19	LOC440680 (retired record)	-1.16	-1.24	-0.805
20	SYCE2	0.947	0.831	1.02
21	TPM2	2.47 (active)	0.537	4.91
22	USP34	4.71 (active)	3.39	3.67
23	ITPRIPL2	0.231	-1.04	-0.775
24	MED12L	-0.193	1.35	-0.722
25	TRIM48	-0.488	0.959	1.21
26	B4GALNT2	-0.815	-1.52	0.765
27	MAP10	0.252	1.56	1.55
28	ZNF544	0.73	0.873	1.12

Only “robust z-score, replicate 2” (2 entries from above):
ARF5 = 0.85
SSX7 = -0.191
